Source: publication doi:10.1101/2025.11.15.688598
No constants are given. Whether binding was seen depends on the method and setting. Some results given as binding are weak or reduced against the parent protein; the word gives no strength. One block for each molecule: values may come before it.

The chains behind the UniProt entries cited, without tags or fusion partners.
UniProt P40938: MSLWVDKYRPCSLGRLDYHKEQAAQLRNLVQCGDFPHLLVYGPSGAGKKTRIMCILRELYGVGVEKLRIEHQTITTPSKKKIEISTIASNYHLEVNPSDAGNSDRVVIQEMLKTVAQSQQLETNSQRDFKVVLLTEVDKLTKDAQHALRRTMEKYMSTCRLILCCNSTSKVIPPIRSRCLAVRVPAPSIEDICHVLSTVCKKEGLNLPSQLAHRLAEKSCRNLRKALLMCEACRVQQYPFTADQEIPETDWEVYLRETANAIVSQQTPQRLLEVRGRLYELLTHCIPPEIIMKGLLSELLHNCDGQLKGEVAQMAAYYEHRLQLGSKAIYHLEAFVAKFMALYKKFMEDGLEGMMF
UniProt P40937: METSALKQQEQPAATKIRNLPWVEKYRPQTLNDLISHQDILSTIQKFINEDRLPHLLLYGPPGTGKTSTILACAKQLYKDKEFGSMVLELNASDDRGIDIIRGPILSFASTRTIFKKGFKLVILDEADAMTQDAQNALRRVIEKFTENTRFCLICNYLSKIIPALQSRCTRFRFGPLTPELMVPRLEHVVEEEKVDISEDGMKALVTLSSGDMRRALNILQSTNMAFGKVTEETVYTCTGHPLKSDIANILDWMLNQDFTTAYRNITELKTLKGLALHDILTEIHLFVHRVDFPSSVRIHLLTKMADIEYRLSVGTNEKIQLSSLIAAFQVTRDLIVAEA
UniProt P35250: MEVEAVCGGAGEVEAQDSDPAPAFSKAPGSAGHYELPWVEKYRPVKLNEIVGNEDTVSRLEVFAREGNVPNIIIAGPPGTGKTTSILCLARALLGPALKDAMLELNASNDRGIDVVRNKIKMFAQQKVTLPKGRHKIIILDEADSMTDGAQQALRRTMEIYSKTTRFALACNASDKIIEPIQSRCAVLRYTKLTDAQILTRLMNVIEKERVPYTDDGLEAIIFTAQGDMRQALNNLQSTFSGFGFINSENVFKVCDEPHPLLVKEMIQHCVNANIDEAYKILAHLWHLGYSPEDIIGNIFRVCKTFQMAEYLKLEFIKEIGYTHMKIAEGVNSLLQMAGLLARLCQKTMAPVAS

Target: Replication factor C subunit 3 (RFC3) with N-terminal 6xHis tag (human) (UniProt P40938)
Test: co-purification

binding: binds
Molecule: Replication factor C subunit 5 (RFC5) (from UniProt P40937 1-340)

binding: binds
Molecule: Replication factor C subunit 2 (RFC2) (from UniProt P35250 1-354)

binding: binds
B1: N-terminus truncated RFC1 (ΔN-RFC1-Strep II) (domain or fragment, UniProt P35251 551-1148)
chain: KSLDFKEQVAEETSGDSKARNLADDSSENKVENLLWVDKYKPTSLKTIIGQQGDQSCANKLLRWLRNWQKSSSEDKKHAAKFGKFSGKDDGSSFKAALLSGPPGVGKTTTASLVCQELGYSYVELNASDTRSKSSLKAIVAESLNNTSIKGFYSNGAASSVSTKHALIMDEVDGMAGNEDRGGIQELIGLIKHTKIPIICMCNDRNHPKIRSLVHYCFDLRFQRPRVEQIKGAMMSIAFKEGLKIPPPAMNEIILGANQDIRQVLHNLSMWCARSKALTYDQAKADSHRAKKDIKMGPFDVARKVFAAGEETAHMSLVDKSDLFFHDYSIAPLFVQENYIHVKPVAAGGDMKKHLMLLSRAADSICDGDLVDSQIRSKQNWSLLPAQAIYASVLPGELMRGYMTQFPTFPSWLGKHSSTGKHDRIVQDLALHMSLRTYSSKRTVNMDYLSLLRDALVQPLTSQGVDGVQDVVALMDTYYLMKEDFENIMEISSWGGKPSPFSKLDPKVKAAFTRAYNKEAHLTPYSLQAIKASRHSTSPSLDSEYNEELNEDDSQSDEKDQDAIETDAMIKKKTKSSKPSKPEKDKEPRKGKGKSSKK
